Laboratory results as given in PubChem BioAssay AID504847 (National Center for Advancing Translational Sciences (NCATS), 2011).
Values joined by “and” are separate entries in the source; they are usually repeats but may differ in a detail not shown here. Equal values may be shown once. In all, about 400,000 compounds went through this assay and about 3,700 (0.93%) were called active. Inconclusive results, whose numbers are uncertain, are shown with a selection of clear calls. The call rests on the fitted dose curve; in most records, active means well fitted inhibition curve with a large enough effect; inconclusive means small, poorly fitted or top-dose-only effect, or another doubt; inactive means no such curve, though single readings can be large or run the other way. Potencies of inconclusive entries are doubtful fits and often do not repeat.

The chains behind the UniProt entries cited, without tags or fusion partners. Where a name states a change or a piece, a line headed by the entry shows the natural chain unless it says otherwise.
UniProt P11473: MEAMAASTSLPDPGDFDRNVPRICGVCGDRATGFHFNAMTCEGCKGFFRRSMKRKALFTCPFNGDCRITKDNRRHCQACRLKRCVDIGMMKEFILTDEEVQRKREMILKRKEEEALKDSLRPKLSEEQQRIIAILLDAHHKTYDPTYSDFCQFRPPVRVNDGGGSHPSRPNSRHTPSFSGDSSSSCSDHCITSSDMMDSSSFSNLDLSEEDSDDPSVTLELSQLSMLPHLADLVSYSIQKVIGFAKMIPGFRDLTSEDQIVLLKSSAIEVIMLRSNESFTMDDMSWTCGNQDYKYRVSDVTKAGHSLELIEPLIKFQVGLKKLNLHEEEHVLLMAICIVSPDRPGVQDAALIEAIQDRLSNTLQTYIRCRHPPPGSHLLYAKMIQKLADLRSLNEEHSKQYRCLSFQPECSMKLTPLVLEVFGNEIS

molecular target: Vitamin D3 receptor (Homo sapiens) (UniProt P11473); experiment: Inhibitors of the vitamin D receptor (VDR): qHTS; conditions: VDR-SRC2-3 peptide fluorescence polarization, 2 h; max response, negative = inhibition: active compounds read low
Text: The vitamin D receptor (VDR) is a ligand-activated transcription factor and is partially responsible for the regulation of the endocrine system. This includes the transcriptional regulation of genes involved in the production of the parathyroid hormone (PTH) and the regulation of the blood calcium level. High levels of PHT can cause hypercalcemia in the case of primary and tertiary hyperparathyroidism. The VDR-mediated gene regulation, activated by its ligand 1,25-dihydroxyvitamin D3 (1,25-(OH)2D3), is governed by the recruitment of coactivators. Our hypothesis is that small molecules, with the ability to inhibit the interaction between VDR and certain coactivators, are able to selectively modulate VDR-mediated transcription. Our long term objective is the application these VDR-coactivator inhibitors to study the role of VDR-coactivator binding for specific VDR regulated genes. Ultimately, these molecules can be developed into new treatments for hypercalcemic hyperparathyroidism. No small molecule or non-peptide inhibitors are known for the VDR-coactivator interaction.
In a collaboration between the University of Wisconsin, Milwaukee and the NIH Chemical Genomics Center (NCGC) a HTS-compatible enzymatic assay was developed. The assay uses fluorescence polarization as its read-out to measure the inhibition between VDR and coregulator peptide SRC2-3 exerted by small molecules. This assay was used to screen the NIH Molecular Libraries Small Molecule Repository (MLSMR).
NIH Chemical Genomics Center [NCGC]
NIH Molecular Libraries Probe Centers Network [MLPCN]
Assay Submitter (PI): Alexander Arnold, University of Wilwaukee
Both solutions are kept at 4 deg C and protected from light and dispensed using a Kalypsys dispenser. Then 23nl of compounds and controls are added with Kalypsys pintool. […] Plate is centrifuged at 1000 RPM for 15 seconds to remove any residual bubbles. The plate is then incubate at ambient room temperature for 2 hours.
On the % scale 0 is the no-effect control and ±100 the full control effect; potency means the concentration at half of the fitted maximal effect.

| Structure (SMILES) | max response, negative = inhibition | Potency |
| --- | --- | --- |
| CC(C)(C)OC(=O)N1CCCC1C(=O)O (centres undefined) | inactive: -15.1% |  |
| CCOc1cc(/C=C2\C(=O)N(Cc3ccc(C)cc3)C(C)=C2C(=O)OC)ccc1O |  | inconclusive: 50.1 µM [inhibitor, partial curve, poor fit] |
| COc1ccccc1C(=O)Nc1cccc(NC(=O)c2ccccc2C)c1 | inactive: -13.9% |  |
| Cc1ccc(-c2cc(C(=O)NCc3ccccc3Cl)c3ccccc3n2)cc1C | inactive: -9.07% |  |
| Cc1ccc2c(c1)N(CCCC(=O)Nc1cccc(C(F)(F)F)c1)C(=O)CO2 |  | inconclusive: 63.1 µM [inhibitor, partial curve, poor fit] |
| OCc1ccccc1SSc1ccccc1CO |  | active: 8.91 µM |
| COc1ccccc1N1CCN(/N=C\C(Br)=C\c2ccccc2)CC1 |  | active: 44.7 µM |
| Cc1nn(C)cc1/C=N/NC(=O)c1ccc2c(c1)OCO2 | inactive: -0.808% |  |
| CCNc1ncc2nc(C)c(=O)n(C[C@H]3CCCO3)c2n1 | inactive: 3.91% |  |
| O=c1c2ccccc2c(C=NCc2ccccn2)c(O)n1-c1ccccc1 |  | inconclusive: 89.1 µM [inhibitor, single point] |
| O=C(c1cccc(NS(=O)(=O)c2ccc(F)c(F)c2)c1)N1CCCCC1 |  | inconclusive: 79.4 µM [inhibitor, single point] |
| COc1cc(OC)cc(-c2nc(-c3ccc4c(c3)[nH]c(=O)n4C)no2)c1 | inactive: -0.0777% |  |
| CCOC(=O)/C=C/C(=O)Nc1ccccc1-c1ccccc1NC(=O)/C=C/C(=O)OCC |  | inconclusive: 10 µM [inhibitor, full curve, poor fit] |
| N=C1/C(=C/c2coc3ccccc3c2=O)C(=O)N=C2SC(c3ccco3)=NN12 |  | inconclusive: 63.1 µM [inhibitor, partial curve, poor fit] |
| COc1cc(/C=C2/C(=O)NN(c3cccc(C)c3)C2=O)ccc1OC(=O)c1ccco1 |  | active: 50.1 µM |
| COCCCNC(=O)c1c(N)n(/N=C/c2cccs2)c2nc3ccccc3nc12 | inactive: -6.77% |  |
| CCn1c(SCC(=O)N/N=C/C=C/c2ccco2)nc2ccccc21 |  | inconclusive: 79.4 µM [inhibitor, partial curve, poor fit] |
| C/C=C/C=C\C(=O)Nc1cccc(C2=NOC3(C2)C[C@@H](C(N)=O)N(C(=O)c2cc([N+](=O)[O-])cc([N+](=O)[O-])c2C)C3)c1 (some centres undefined) |  | inconclusive: 89.1 µM [inhibitor, partial curve, poor fit] |
| O=C1C2CC=CCC2C(=O)N1c1ccc(NCCc2ccccc2F)c([N+](=O)[O-])c1 (centres undefined) | inactive: 4.52% |  |
| O=C1CCCCC/C1=N/Nc1ccc(OCc2ccccc2)cc1 | inactive: -3.16% |  |
| O=C(NCCCO)c1ccc2nc(-c3ccco3)c(-c3ccco3)nc2c1 |  | active: 79.4 µM |
| COc1ccc(NC(=O)CSc2nc3ccc(Nc4nc(N5CCOCC5)nc(N5CCOCC5)n4)cc3s2)cc1 | inactive: -6.78% |  |
| C=C(C)Cn1c(NCCC)nc2c1c(=O)n(C)c(=O)n2C |  | inconclusive: 39.8 µM [inhibitor, partial curve, poor fit] |

An excerpt of these results, in CSV form.
Structure (SMILES),"max response, negative = inhibition",Potency
OCc1ccccc1SSc1ccccc1CO,,active: 8.91 µM
COc1ccccc1N1CCN(/N=C\C(Br)=C\c2ccccc2)CC1,,active: 44.7 µM
Cc1nn(C)cc1/C=N/NC(=O)c1ccc2c(c1)OCO2,inactive: -0.808%,
CCNc1ncc2nc(C)c(=O)n(C[C@H]3CCCO3)c2n1,inactive: 3.91%,
O=c1c2ccccc2c(C=NCc2ccccn2)c(O)n1-c1ccccc1,,"inconclusive: 89.1 µM [inhibitor, single point]"
O=C(c1cccc(NS(=O)(=O)c2ccc(F)c(F)c2)c1)N1CCCCC1,,"inconclusive: 79.4 µM [inhibitor, single point]"
COc1cc(OC)cc(-c2nc(-c3ccc4c(c3)[nH]c(=O)n4C)no2)c1,inactive: -0.0777%,
CCOC(=O)/C=C/C(=O)Nc1ccccc1-c1ccccc1NC(=O)/C=C/C(=O)OCC,,"inconclusive: 10 µM [inhibitor, full curve, poor fit]"
N=C1/C(=C/c2coc3ccccc3c2=O)C(=O)N=C2SC(c3ccco3)=NN12,,"inconclusive: 63.1 µM [inhibitor, partial curve, poor fit]"
COc1cc(/C=C2/C(=O)NN(c3cccc(C)c3)C2=O)ccc1OC(=O)c1ccco1,,active: 50.1 µM
COCCCNC(=O)c1c(N)n(/N=C/c2cccs2)c2nc3ccccc3nc12,inactive: -6.77%,
CCn1c(SCC(=O)N/N=C/C=C/c2ccco2)nc2ccccc21,,"inconclusive: 79.4 µM [inhibitor, partial curve, poor fit]"
C/C=C/C=C\C(=O)Nc1cccc(C2=NOC3(C2)C[C@@H](C(N)=O)N(C(=O)c2cc([N+](=O)[O-])cc([N+](=O)[O-])c2C)C3)c1 (some centres undefined),,"inconclusive: 89.1 µM [inhibitor, partial curve, poor fit]"
O=C1C2CC=CCC2C(=O)N1c1ccc(NCCc2ccccc2F)c([N+](=O)[O-])c1 (centres undefined),inactive: 4.52%,
O=C1CCCCC/C1=N/Nc1ccc(OCc2ccccc2)cc1,inactive: -3.16%,
O=C(NCCCO)c1ccc2nc(-c3ccco3)c(-c3ccco3)nc2c1,,active: 79.4 µM

2 neighbouring records out of the list so far:

| Structure (SMILES) | max response, negative = inhibition | Potency |
| --- | --- | --- |
| N=C1/C(=C/c2coc3ccccc3c2=O)C(=O)N=C2SC(c3ccco3)=NN12 |  | inconclusive: 63.1 µM [inhibitor, partial curve, poor fit] |
| COc1cc(/C=C2/C(=O)NN(c3cccc(C)c3)C2=O)ccc1OC(=O)c1ccco1 |  | active: 50.1 µM |

(continued)

| Structure (SMILES) | max response, negative = inhibition | Potency |
| --- | --- | --- |
| Cc1ccc(C(=O)CSc2cc(C)[nH]c(=O)n2)cc1 |  | inconclusive: 89.1 µM [inhibitor, partial curve, poor fit] |
| CCOC(=O)C1CCN(Cc2oc(CO)cc(=O)c2O)CC1 | inactive: -6.48% |  |
| O=C(/C=C/c1ccccc1Cl)NCc1ccco1 | inactive: 7.49% |  |
| Cc1noc(NS(=O)(=O)c2ccc(NC(=O)CSc3ncccn3)cc2)c1C | inactive: -17.2% |  |
| CCOC(=O)c1ccc(N2C(=O)c3n[nH]c(-c4ccco4)c3C2c2ccc(O)c(OCC)c2)cc1 (centres undefined) |  | inconclusive: 100 µM [inhibitor, partial curve, poor fit] |
| COC(=O)c1sc(NC(=O)COc2ccc(OC)cc2)nc1C |  | inconclusive: 70.8 µM [inhibitor, partial curve] |
| CC(=O)/C(=C/c1ccccc1)C(=O)Nc1ccccc1C |  | active: 22.4 µM |
| CCC(=O)Nc1cccc(C(=O)/C=C/c2ccccc2)c1 |  | active: 50.1 µM |
| CCOC(=O)CC1(NC(=O)C2CCC(=O)N(Cc3ccccc3F)C2)CCCCC1 (centres undefined) |  | inconclusive: 20 µM [inhibitor, partial curve, poor fit] |
| Cc1cc(OC(C)C(=O)NCCCN2CCOCC2)c2c(C)cc(=O)oc2c1 (centres undefined) |  | inconclusive: 89.1 µM [inhibitor, partial curve, poor fit] |
| O=C(NCc1ccc(Cl)cc1)c1ccc(COCC(F)(F)F)o1 |  | inconclusive: 89.1 µM [inhibitor, single point] |
| NNc1cc(C(=O)O)ccc1Cl |  | inconclusive: 100 µM [inhibitor, single point] |
| CCN(CC)CCCNC(=O)Cc1ccc(NC(=O)N2CCCCc3ccccc32)cc1 | inactive: -1.48% |  |
| Cc1ccccc1-c1cc(NCc2ccccc2)ncn1 |  | inconclusive: 44.7 µM [inhibitor, partial curve, poor fit] |
| COc1ccc2nc(NC(=O)Nc3ccccc3)sc2c1 | inactive: 11.8% and inactive: 2.46% |  |
| COn1c2c(c3c4nonc4ccc31)CCCC2 |  | inconclusive: 44.7 µM [inhibitor, partial curve, poor fit] |
| CC(=O)c1ccc(NC(=O)C(Cc2ccccc2)n2cccc2)cc1 (centres undefined) |  | inconclusive: 20 µM [inhibitor, partial curve, poor fit] |
| C=CS(=O)(=O)c1ccc(Oc2ccc(S(=O)(=O)C=C)cc2)cc1 |  | active: 44.7 µM |
| O=C1c2cccc(OCC(=O)N3CCCc4ccccc43)c2CCN1Cc1ccc(Br)cc1 |  | inconclusive: 89.1 µM [inhibitor, partial curve, poor fit] |
| O=C(COc1ccc2ccc(=O)oc2c1)NC(Cc1ccc(Cl)cc1)C(=O)O (centres undefined) |  | inconclusive: 4.47 µM [inhibitor, full curve, poor fit] |
| CC(=O)Oc1oc(-c2ccccc2)nc1C=Nc1ccccc1 |  | active: 39.8 µM |
| CC(=O)Nc1ccc(C(=O)OCC(=O)c2cccc([N+](=O)[O-])c2)cc1 |  | inconclusive: 79.4 µM [inhibitor, partial curve, poor fit] |
| Cn1cccc1CC(=O)N/N=C/C=C/c1ccco1 |  | inconclusive: 89.1 µM [inhibitor, single point] |

| Structure (SMILES) | max response, negative = inhibition | Potency |
| --- | --- | --- |
| COc1ccc(N(CC(=O)NC2CCS(=O)(=O)C2)S(=O)(=O)c2cc(C)ccc2C)cc1 (centres undefined) |  | inconclusive: 44.7 µM [inhibitor, partial curve, poor fit] |
| O=C(NC1CCCC1)[C@@H]1CSC2c3ccccc3C(=O)N21 (some centres undefined) |  | inconclusive: 20 µM [inhibitor, partial curve, poor fit] |
| O=C(CSc1ccccn1)N1CCN(c2cccc(Cl)c2)CC1 |  | inconclusive: 89.1 µM [inhibitor, single point] |
| CCCCCCC1(C)NC(=S)N(c2ccccc2)N1 (centres undefined) |  | inconclusive: 79.4 µM [inhibitor, partial curve] |
| CCc1cc(C(=O)c2ccc(OC)cc2)c(NC(=O)CCC(=O)O)s1 |  | inconclusive: 89.1 µM [inhibitor, single point] |
| CCOC(=O)c1ccc(NC(=O)Cc2cccs2)cc1 |  | inconclusive: 7.94 µM [inhibitor, partial curve, poor fit] |
| O=C(N[C@@H](Cc1ccccc1)C(=O)OCc1ccccc1)c1nc[nH]c1C(=O)N[C@@H](Cc1ccccc1)C(=O)OCc1ccccc1 |  | inconclusive: 100 µM [inhibitor, single point] |
| COc1ccc(N2CCN(C(=O)c3ccc(CNS(=O)(=O)c4ccc(C)cc4)cc3)CC2)cc1 | inactive: 5.74% |  |
| O=C(Nc1ccc2oc(=O)ccc2c1)c1ccc(-c2ccccc2[N+](=O)[O-])o1 | inactive: -3.08% |  |
| COc1ccc(-n2nc3c(N4CCCC(C(=O)NCc5ccc(C)cc5)C4)nnc(C)c3c2C)cc1 (centres undefined) | inactive: 10.6% |  |
| O=C1/C(=C/c2ccncc2)CCC/C1=C\c1ccncc1 |  | active: 7.08 µM |
| COc1cccc(-c2c(-c3cc(OC)cc(OC)c3)n(C)c3ccc(-c4ccc(OC)nc4)cc23)c1 |  | inconclusive: 100 µM [inhibitor, single point] |
| CCc1nnc(NS(=O)(=O)c2ccc(NC(=S)NC(=O)/C=C/c3ccc(OC)cc3)cc2)s1 | inactive: 1.29% |  |
| CCOc1ccc(CCNC(=O)CSc2n[nH]c(N)n2)cc1OCC | inactive: -30.6% |  |
| CN(C)c1ccc(N=Cc2ccco2)cc1 |  | active: 2 µM |
| Oc1ccc2ccccc2c1CNc1ccccc1 |  | active: 22.4 µM |
| Cc1noc(C)c1-c1nc(NCc2ccccc2)c2ccccc2n1 |  | active: 35.5 µM |
| CCc1c(C)[nH]n(-c2ccc(Oc3ccccc3)c(S(=O)(=O)O)c2)c1=O |  | inconclusive: 79.4 µM [inhibitor, single point] |
| CCN1CCN(c2ccc(S(=O)(=O)N3CCCCC3)cc2NC(=O)COc2ccccc2)CC1 |  | inconclusive: 89.1 µM [inhibitor, single point] |
| CCCCCc1ccnc(CC(=O)c2ccc(OC)cc2)c1 | inactive: 13.7% |  |
| CC(C)(C)c1ccc(S(=O)(=O)c2cn(CC(=O)Nc3ccccc3)c3ccccc3c2=O)cc1 |  | inconclusive: 89.1 µM [inhibitor, partial curve, poor fit] |
| COc1ccc(OCC(O)COc2ccc(OC)cc2)cc1 | inactive: 4.5% |  |
| O=C1/C(=C\c2ccccc2)CN(C(=O)CCN2CCCCC2)C/C1=C/c1ccccc1 |  | active: 31.6 µM |
